Four sequences from patent publication US20100076060 can be followed below.

Sequences of proteins named here, by UniProt entry; tags and fusion partners are left off. Residues count along the entry.
UniProt Q07011, 24-186: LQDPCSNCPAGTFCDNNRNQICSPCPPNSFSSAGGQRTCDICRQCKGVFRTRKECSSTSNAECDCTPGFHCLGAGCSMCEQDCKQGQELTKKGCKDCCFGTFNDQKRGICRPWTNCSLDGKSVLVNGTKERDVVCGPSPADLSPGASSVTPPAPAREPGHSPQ

Data set [1] concerns the target T1, 4-1BB (CD137) extracellular portion (Mus musculus) (UniProt P20334).
T1 sequence: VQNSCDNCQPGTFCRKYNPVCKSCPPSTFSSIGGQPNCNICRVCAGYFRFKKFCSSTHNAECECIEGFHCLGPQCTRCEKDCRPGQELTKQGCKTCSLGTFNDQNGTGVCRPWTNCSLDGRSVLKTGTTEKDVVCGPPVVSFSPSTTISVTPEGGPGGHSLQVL
In words: SELEX. As to conditions: 2'-F pyrimidines; purified recombinant protein; protein details: human IgG1 Fc fusion.

Data set [2] concerns the target 4-1BB (CD137) extracellular portion (Homo sapiens) (UniProt Q07011). Description: SELEX. The note with it: 2'-F pyrimidines; purified recombinant protein; protein details: human IgG1 Fc fusion.

Construct, isoform or probe ends are uncertain for at least one entry.

On to “GGGAGAGAGGAAGAGGGAUGGGCGCACUACCUGCACAUUGACCAGUACCCCUGUGCCACGCUCAUAACCCAGAGGUCGAUAGUACUGGAUCCCCCC [4-1BB aptamer SEQ 49]”, for which the selection result in data set [1] and in data set [2] was “selected” throughout.

In the case of “GGGAGAGAGGAAGAGGGAUGGGACGACCUCUUUGAUUACCUGGGCUGAUUCGCCAUCUUCACCAUAACCCAGAGGUCGAUAGUACUGGAUCCCCCC [4-1BB aptamer SEQ 53]”, the selection result in data set [1] and in data set [2] was “selected” in each case.

For the sequence “GGGAGAGAGGAAGAGGGAUGGGACCUGACGCAUACCUCCUCCCACCGCAAGUGCCCUCCGCUCAUAACCCAGAGGUCGAUAGUACUGGAUCCCCCC [4-1BB aptamer SEQ 51]”, the selection result in data set [1] and in data set [2] was “selected” throughout.

Regarding “GGGAGAGAGGAAGAGGGAUGGGGACCAGUCUAACCAUCCACACUCUGUCAUUGCCCAGCGCCCAUAACCCAGAGGUCGAUAGUACUGGAUCCCCCC [4-1BB aptamer SEQ 73]”, the selection result in data set [1] and in data set [2] was “selected” each time.
